In this test the target is T1, PTPN14 (human (endogenous in C33A)) (UniProt Q15678).
T1 sequence: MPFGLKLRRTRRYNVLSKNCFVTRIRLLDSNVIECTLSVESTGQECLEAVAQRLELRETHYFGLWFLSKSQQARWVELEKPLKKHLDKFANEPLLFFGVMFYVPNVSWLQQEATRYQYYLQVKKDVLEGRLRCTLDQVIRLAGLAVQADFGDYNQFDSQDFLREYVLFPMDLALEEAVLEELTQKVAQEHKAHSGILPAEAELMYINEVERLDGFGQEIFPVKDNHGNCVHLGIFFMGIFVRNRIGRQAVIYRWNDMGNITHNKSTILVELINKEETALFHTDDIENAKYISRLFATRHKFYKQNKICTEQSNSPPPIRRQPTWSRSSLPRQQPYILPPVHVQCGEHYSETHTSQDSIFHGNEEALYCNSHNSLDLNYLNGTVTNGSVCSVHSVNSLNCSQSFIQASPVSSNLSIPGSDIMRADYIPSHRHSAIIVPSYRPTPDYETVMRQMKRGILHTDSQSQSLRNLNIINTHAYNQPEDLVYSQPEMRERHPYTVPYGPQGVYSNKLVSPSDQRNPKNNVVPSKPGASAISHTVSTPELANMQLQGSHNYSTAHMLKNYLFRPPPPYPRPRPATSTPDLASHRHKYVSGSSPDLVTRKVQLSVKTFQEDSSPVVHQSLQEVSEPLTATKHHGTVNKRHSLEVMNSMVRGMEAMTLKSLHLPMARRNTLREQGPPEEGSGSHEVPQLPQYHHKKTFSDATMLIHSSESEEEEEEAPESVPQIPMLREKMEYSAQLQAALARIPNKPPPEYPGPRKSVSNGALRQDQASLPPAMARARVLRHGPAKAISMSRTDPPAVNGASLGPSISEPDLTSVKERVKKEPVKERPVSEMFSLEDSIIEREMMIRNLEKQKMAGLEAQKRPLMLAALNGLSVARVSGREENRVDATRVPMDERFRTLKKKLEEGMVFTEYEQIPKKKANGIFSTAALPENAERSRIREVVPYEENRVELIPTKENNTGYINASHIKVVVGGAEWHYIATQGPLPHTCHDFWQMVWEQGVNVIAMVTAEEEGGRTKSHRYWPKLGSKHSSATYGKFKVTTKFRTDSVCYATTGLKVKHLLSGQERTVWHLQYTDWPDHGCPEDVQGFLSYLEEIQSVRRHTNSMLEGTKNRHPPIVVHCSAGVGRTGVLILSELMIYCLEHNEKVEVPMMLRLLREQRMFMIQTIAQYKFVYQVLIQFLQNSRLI
In words: FRET or BRET. A general note: BRET reads energy transfer from a luciferase to a nearby fluorophore.

Sequences of proteins named here, by UniProt entry; tags and fusion partners are left off.
UniProt P03129: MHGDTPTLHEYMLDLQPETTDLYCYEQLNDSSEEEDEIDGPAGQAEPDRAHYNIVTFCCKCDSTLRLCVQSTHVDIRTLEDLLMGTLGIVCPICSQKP

No constants are given. Whether binding was seen depends on the method and setting. In cells and extracts the contact can be indirect. Some binding calls cover weakened binding; strength is not graded here.

For “HPV16E7 wild-type (from UniProt P03129 1-98)”, the binding entry was “binds”.

The record behind these values is publication PMC7836002.
